This assay addresses Flag-tagged NS1 protein of influenza A/PR/8/34 (PR8) virus (influenza A virus A/PR/8/34 (PR8)) (UniProt P03496). Briefly: affinity purification with mass spectrometry.

Chains of the proteins cited; added tags and fusions are not shown.
UniProt P0DMV8: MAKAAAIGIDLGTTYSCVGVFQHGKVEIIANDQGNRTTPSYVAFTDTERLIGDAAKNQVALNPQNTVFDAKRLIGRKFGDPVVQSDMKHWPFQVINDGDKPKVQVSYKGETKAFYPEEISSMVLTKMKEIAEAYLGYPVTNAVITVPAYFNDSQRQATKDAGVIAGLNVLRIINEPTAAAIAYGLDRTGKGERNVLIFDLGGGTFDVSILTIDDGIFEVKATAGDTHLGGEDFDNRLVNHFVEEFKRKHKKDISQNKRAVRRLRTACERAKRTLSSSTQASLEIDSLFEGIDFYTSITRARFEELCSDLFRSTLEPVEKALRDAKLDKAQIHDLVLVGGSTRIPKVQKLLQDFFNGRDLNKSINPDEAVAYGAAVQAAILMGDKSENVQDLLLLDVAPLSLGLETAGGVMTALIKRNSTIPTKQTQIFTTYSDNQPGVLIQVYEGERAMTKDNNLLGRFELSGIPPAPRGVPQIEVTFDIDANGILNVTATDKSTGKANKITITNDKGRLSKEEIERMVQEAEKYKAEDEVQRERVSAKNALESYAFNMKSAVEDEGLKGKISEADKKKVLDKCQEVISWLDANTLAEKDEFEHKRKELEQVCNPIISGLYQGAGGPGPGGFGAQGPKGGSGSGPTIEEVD
UniProt P11142: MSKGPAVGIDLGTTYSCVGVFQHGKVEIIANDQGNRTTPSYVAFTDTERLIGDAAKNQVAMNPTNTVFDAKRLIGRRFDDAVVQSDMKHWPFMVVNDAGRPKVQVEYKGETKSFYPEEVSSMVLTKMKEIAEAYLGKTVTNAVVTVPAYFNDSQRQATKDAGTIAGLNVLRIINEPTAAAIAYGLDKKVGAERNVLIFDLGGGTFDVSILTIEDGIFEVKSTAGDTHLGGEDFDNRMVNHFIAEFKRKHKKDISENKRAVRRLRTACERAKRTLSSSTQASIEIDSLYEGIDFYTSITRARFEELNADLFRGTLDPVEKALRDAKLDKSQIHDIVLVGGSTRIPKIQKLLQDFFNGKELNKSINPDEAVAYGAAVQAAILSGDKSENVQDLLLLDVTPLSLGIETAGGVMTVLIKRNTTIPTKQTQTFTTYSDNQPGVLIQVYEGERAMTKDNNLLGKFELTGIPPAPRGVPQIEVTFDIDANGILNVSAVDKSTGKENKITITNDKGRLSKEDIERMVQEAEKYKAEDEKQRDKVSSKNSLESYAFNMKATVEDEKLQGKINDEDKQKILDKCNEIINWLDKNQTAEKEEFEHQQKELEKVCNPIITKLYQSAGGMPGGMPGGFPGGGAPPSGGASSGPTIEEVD
UniProt Q9Y265: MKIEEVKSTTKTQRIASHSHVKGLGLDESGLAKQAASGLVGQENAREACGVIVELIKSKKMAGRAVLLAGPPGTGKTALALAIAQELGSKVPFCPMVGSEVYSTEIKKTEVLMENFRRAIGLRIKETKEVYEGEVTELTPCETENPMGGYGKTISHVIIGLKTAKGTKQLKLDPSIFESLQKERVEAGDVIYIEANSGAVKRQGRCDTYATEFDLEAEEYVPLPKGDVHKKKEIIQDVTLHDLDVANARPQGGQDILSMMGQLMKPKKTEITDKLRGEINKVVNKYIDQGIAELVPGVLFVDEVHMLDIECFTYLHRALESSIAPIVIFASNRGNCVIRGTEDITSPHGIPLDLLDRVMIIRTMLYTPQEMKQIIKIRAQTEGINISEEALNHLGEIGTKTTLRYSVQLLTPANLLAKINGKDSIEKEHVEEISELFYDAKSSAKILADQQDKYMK
UniProt Q99729: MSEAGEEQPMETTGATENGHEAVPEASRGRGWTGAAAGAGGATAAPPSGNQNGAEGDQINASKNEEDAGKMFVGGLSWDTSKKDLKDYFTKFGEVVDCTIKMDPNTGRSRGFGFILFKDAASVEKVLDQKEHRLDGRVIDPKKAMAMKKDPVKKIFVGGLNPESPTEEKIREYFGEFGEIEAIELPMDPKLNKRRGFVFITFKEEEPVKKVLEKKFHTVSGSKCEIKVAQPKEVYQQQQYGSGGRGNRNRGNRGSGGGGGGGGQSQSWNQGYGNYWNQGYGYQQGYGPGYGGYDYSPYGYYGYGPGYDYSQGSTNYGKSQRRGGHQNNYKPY
UniProt O60506: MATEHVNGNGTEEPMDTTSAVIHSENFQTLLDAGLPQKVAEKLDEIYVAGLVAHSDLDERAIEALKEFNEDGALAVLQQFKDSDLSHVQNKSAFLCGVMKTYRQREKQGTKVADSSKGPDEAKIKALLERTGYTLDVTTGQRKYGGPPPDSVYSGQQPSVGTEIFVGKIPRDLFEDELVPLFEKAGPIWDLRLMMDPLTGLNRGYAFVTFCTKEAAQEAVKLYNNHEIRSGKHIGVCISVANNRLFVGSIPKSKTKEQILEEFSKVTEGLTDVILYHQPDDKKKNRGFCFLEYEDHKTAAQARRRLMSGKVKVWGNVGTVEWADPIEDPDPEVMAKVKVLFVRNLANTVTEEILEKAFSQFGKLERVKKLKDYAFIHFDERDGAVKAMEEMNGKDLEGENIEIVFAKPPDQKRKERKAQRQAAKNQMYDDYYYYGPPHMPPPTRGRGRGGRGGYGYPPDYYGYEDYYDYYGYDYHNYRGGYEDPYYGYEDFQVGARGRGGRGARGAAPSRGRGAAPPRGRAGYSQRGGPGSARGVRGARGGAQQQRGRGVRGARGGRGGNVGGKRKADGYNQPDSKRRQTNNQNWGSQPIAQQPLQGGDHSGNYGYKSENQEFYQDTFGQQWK

Results are given in words; binding and its absence hold for the method and conditions named. Binding seen in cells or lysates may run through a third protein. A yes stands for co-enrichment or nearness to the bait. Other partners may have been found.

Turning to “Heat shock 70 kDa protein 1A/1B (from UniProt P0DMV8 1-641)”, the binding result is given as “binds”. The result for “Heat shock cognate 71 kDa protein (from UniProt P11142 1-646)” reads “binds”; that for “RuvB-like protein 1 (RuvBL1), endogenous (from UniProt Q9Y265 1-456)”, “binds”; that for hnRNP A/B (from UniProt Q99729 1-332), “binds”. Consider hnRNP K (from UniProt P61978 1-463), for which the binding result is “binds”. The result for hnRNP Q (from UniProt O60506 1-623) reads “binds”.

B1: hnRNP D-like (protein, UniProt O14979 1-420)
chain: MEVPPRLSHVPPPLFPSAPATLASRSLSHWRPRPPRQLAPLLPSLAPSSARQGARRAQRHVTAQQPSRLAGGAAIKGGRRRRPDLFRRHFKSSSIQRSAAAAAATRTARQHPPADSSVTMEDMNEYSNIEEFAEGSKINASKNQQDDGKMFIGGLSWDTSKKDLTEYLSRFGEVVDCTIKTDPVTGRSRGFGFVLFKDAASVDKVLELKEHKLDGKLIDPKRAKALKGKEPPKKVFVGGLSPDTSEEQIKEYFGAFGEIENIELPMDTKTNERRGFCFITYTDEEPVKKLLESRYHQIGSGKCEIKVAQPKEVYRQQQQQQKGGRGAAAGGRGGTRGRGRGQGQNWNQGFNNYYDQGYGNYNSAYGGDQNYSGYGGYDYTGYNYGNYGYGQGYADYSGQQSTYGKASRGGGNHQNNYQPY
In the case of B1, the binding result is recorded as “binds”.

B2: hnRNP L (protein, UniProt P14866 1-589)
chain: MSRRLLPRAEKRRRRLEQRQQPDEQRRRSGAMVKMAAAGGGGGGGRYYGGGSEGGRAPKRLKTDNAGDQHGGGGGGGGGAGAAGGGGGGENYDDPHKTPASPVVHIRGLIDGVVEADLVEALQEFGPISYVVVMPKKRQALVEFEDVLGACNAVNYAADNQIYIAGHPAFVNYSTSQKISRPGDSDDSRSVNSVLLFTILNPIYSITTDVLYTICNPCGPVQRIVIFRKNGVQAMVEFDSVQSAQRAKASLNGADIYSGCCTLKIEYAKPTRLNVFKNDQDTWDYTNPNLSGQGDPGSNPNKRQRQPPLLGDHPAEYGGPHGGYHSHYHDEGYGPPPPHYEGRRMGPPVGGHRRGPSRYGPQYGHPPPPPPPPEYGPHADSPVLMVYGLDQSKMNCDRVFNVFCLYGNVEKVKFMKSKPGAAMVEMADGYAVDRAITHLNNNFMFGQKLNVCVSKQPAIMPGQSYGLEDGSCSYKDFSESRNNRFSTPEQAAKNRIQHPSNVLHFFNAPLEVTEENFFEICDELGVKRPSSVKVFSGKSERSSSGLLEWESKSDALETLGFLNHYQMKNPNGPYPYTLKLCFSTAQHAS
In the case of B2, the binding result is “binds”.
